These results are taken from PMC5601995.

No constants are given. Whether binding was seen depends on the method and setting. Binding seen in cells or lysates may run through a third protein. Binding calls can cover weak binding; strength is not graded here. Sequences can lack the tags named with a protein.

For the assay, the target named is adam13 (endogenous adam13 protein of Xenopus laevis embryos) (Xenopus laevis (endogenous in embryos)). Put plainly: co-IP; Xenopus laevis embryos injected at the one-cell stage with mRNA, alone or with the adam13 morpholino MO13; extracted in 1XMBS with 1% Triton-X100, protease phosphatase inhibitors and 5 mM EDTA; adam13 precipitated with goat polyclonal g821 on protein A/G-agarose; blotted for Flag (M2) or myc (9E10).

B1: arid3a-flag (protein, UniProt Q6GQD7 1-539)
chain: MKLQAVMETLQRQQRARLQQELEARQLQQDSSEGRTPPSAGYPGNGSDEAEPEALKIQRAQAAALAAMRAAAAGLSQQPSPAASEEEDGESMASDEEDEKERDGESERYQDMASEEEDLKGKWDEDDFEDEGEDEYEDMEEGIGVNEAGRVGKGSTLPPKHSSQQAFPSQRSQGAERAGLPLSGHPQLQDHGDWTYEEQFKQLYELDGDPKRKEFLDDLFSFMQKRGTPVNRIPIMAKQVLDLYMLYVLVTEKGGLVEVINKKLWREITKGLNLPTSITSAAFTLRTQYMKYLYPYECEKRGLSNPNELQAAIDSNRREGRRQSFGGTLFTYSPSGAPSMLSSPKLQVSGLSLGGAALNGSTLSSMQKIKKEEDSPISLAMPPRIPVTLAGHSMVAAQVAAQAAALEQLREKLESGEPPEKKMALGSEEQQRIIQRTIQHNLLAMTAQLPMNIRINSQAEGRQDSAVNLTTNGTNSISMSVELNGIVYTGVLFAQPPTSASGTSKGSSNRTGSIGGGSSNSQAAPPSTPSAPNSNNPSP
Consider B1, for which the binding result is listed as “binds”.
